Screening data, single-dose tests

Chains of the proteins cited; added tags and fusions are not shown.
UniProt P9WPC5, whole entry: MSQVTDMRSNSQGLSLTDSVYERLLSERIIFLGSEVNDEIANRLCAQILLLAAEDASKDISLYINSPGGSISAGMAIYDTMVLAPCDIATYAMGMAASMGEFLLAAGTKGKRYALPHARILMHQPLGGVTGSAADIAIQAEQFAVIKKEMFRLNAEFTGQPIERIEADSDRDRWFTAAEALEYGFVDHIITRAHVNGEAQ
UniProt P9WPC3, whole entry partner: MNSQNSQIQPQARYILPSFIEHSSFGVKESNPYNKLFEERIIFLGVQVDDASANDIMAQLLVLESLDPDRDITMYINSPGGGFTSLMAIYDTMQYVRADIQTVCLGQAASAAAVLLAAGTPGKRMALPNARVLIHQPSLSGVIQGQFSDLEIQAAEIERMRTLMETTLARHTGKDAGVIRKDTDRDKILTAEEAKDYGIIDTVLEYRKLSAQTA

Measurements from “University of Dundee, Small-Polar-MMV Screening Library” (2021), ChEMBL document CHEMBL3988442.

Toxoplasma: 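Assay of Toxoplasma gondii numbers, read through their beta-galactosidase reporter with a colour substrate. Compounds at 10 µM. The record gives no direction; the compounds picked for IC50 retests had high values, so higher reads as fewer parasites. Size under these conditions: about 67,000 compounds, about 260 of them at 50% or above in at least one test.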
ClpP1P2: 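ClpP1P2, Mycobacterium tuberculosis (UniProt P9WPC5 and UniProt P9WPC3). Protease assay of ClpP1P2, read by the AMC dye that it sets free. Concentration: 50 µM. Direction is inferred from only a few compounds that gave an IC50; most scored high, so higher reads as stronger inhibition. Most other retested compounds had strongly negative values. About 69,000 compounds were tested under these conditions; 0.015% (about 10) showed 50% or more at least once.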
Leishmania in macrophages: 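Cell assay of Leishmania donovani living inside macrophages; the read-out is not stated. Compounds at 30 µM. Higher reads as stronger inhibition (inferred: compounds with an IC50 in retests scored well above the rest). Of about 69,000 compounds tested this way, about 1,000 (1.5%) reached 50% or more in at least one test.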
T. brucei: 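Whole-parasite assay of Trypanosoma brucei over 72 hours; the read-out is not stated. Compounds at 30 µM. The record gives no direction; compounds that gave an IC50 in retests scored well above the rest, so higher reads as stronger inhibition. Values scatter widely below zero; nearly all retest evidence comes from the higher of the two concentrations used. Of about 64,000 compounds tested this way, about 940 (1.5%) reached 50% or more in at least one test.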

Results are given as percent effect. How 0% and 100% were set is not recorded. Most values in the screen are low, and negative values occur. Compounds were drawn at random from those tested, without regard to their results. Two or more numbers in one place are separate tests of the same structure; such repeats can differ widely. A dash means the value is not listed here; it may have been measured.

For CCCN1CCc2nc(SCc3c(C)cc(C)cc3C)[nH]c(=O)c2C1 the result was Toxoplasma: 7.979%; ClpP1P2: 13.34%; Leishmania in macrophages: 3.449% and 1.069%; T. brucei: -32.2%.
For c1cncc(COC[C@@H]2CCC[C@]23CNCCO3)c1 the result was ClpP1P2: 0.5307%.
For O=C(O)C(F)(F)F.[H][C@]12C[C@H](C(=O)NC)N(C)[C@@]1([H])CN(S(=O)(=O)c1ccc(F)cc1)C2 the result was Toxoplasma: -2.648%; Leishmania in macrophages: -9.212%; T. brucei: -4.862%.
For CCCNc1ncc(CN2CCC3(CCNC(=O)CC3)CC2)cn1 the result was Toxoplasma: -17.16%; ClpP1P2: -4.319%; Leishmania in macrophages: 14.5%; T. brucei: 2.507%.
For CC(C)Oc1ccc(Cl)c(C(=O)N2CCN(CCO)CC2)n1 the result was Toxoplasma: -17.74%; ClpP1P2: 13.25%; Leishmania in macrophages: -0.2237%; T. brucei: -20.52%.
For COc1ccsc1C(=O)N1CCCC1c1c(C)nn(C)c1OC (centres unmarked) the result was Toxoplasma: -30.15%; ClpP1P2: -12.38%; Leishmania in macrophages: 21.59%; T. brucei: -57.2%.
For CN(C)CCOCc1cncc2c1CCN(C(=O)C1CCOCC1)C2 the result was ClpP1P2: -8.095%.
For [H][C@]12CCN(C(=O)NC)CC[C@@]1([H])S(=O)(=O)N(Cc1cccnc1)C2 the result was Toxoplasma: 4.465%; Leishmania in macrophages: 18.59%.
For O=C1c2cc(Br)cc(Br)c2OCC1(CN1CCCC1)CN1CCCC1 the result was Toxoplasma: -26.04%; ClpP1P2: 0.2905%; Leishmania in macrophages: 15.71%; T. brucei: 44.44%.
For CC(CNC(=O)c1cc(N2CCNC2=O)ccc1F)c1ccccc1 (centres unmarked) the result was Toxoplasma: -4.661%; ClpP1P2: -14.4%; Leishmania in macrophages: 19.54%; T. brucei: 11.03%.
For Clc1ccccc1-c1nc(CNC2CCc3ncnn3C2)co1 (centres unmarked) the result was Toxoplasma: -7.634%; ClpP1P2: -15.62%; Leishmania in macrophages: -0.4678%; T. brucei: -7.792%.
For c1ccc2oc(CCCN3CCCCC3Cn3cncn3)nc2c1 (centres unmarked) the result was Toxoplasma: -35.44%; ClpP1P2: -3.592%; Leishmania in macrophages: 29.22%; T. brucei: -10.69%.
For CCn1nc(CC(C)C)cc1C(=O)N1CCC(n2cnnc2)CC1 the result was Toxoplasma: 5.716%; ClpP1P2: 2.222%; Leishmania in macrophages: -1.64%; T. brucei: -21.55%.
For FC(F)(F)CCc1ccnc(NC2CCOC2)n1 (centres unmarked) the result was Toxoplasma: -5.681%; ClpP1P2: 0.2687%; Leishmania in macrophages: -1.633%; T. brucei: -27.83%.
For COCC1CC2(CCN(C(=O)c3oc4ccccc4c3C)CC2)CO1 (centres unmarked) the result was Toxoplasma: -1.803%; ClpP1P2: -18.53%; Leishmania in macrophages: 8.966%; T. brucei: -63.94%.
For O=C(O)C(F)(F)F.O=C(O)C(F)(F)F.[H][C@@]12OCCN(Cc3ccc(F)cc3)[C@@]1([H])CC[C@H]2Oc1ccccn1 the result was Toxoplasma: 4.225%; Leishmania in macrophages: -23.82%; T. brucei: 0.9503%.
For COc1cc(N2CCC3(CCN(Cc4csc(C)n4)C3=O)C2)ncn1 (centres unmarked) the result was ClpP1P2: 10.2%.
For Cn1ncc(N2CCN(Cc3ccc(S(C)(=O)=O)cc3)CC2)cc1=O the result was Toxoplasma: 2.435%; ClpP1P2: -11.34%; Leishmania in macrophages: 30.86%; T. brucei: -29.69%.
For COc1ccc(C(=O)N(C)Cc2nnc3ccccn23)c(OC)c1 the result was Toxoplasma: -3.957%; ClpP1P2: 5.848%; Leishmania in macrophages: 2.331%; T. brucei: -19.73%.
For O=C(O)C(F)(F)F.c1cnn(Cc2cn3c(n2)CN(Cc2nccs2)CC3)c1 the result was Toxoplasma: -7.428%; Leishmania in macrophages: 15.67%; T. brucei: 20.48%.
For [H][C@@]12CCN(C(=O)c3occc3C)C[C@@]1([H])O[C@H](c1noc(C)n1)C2 the result was Toxoplasma: 2.35%; Leishmania in macrophages: -19.58%; T. brucei: -38.12%.
For CC(C)NC1CCc2c(ccc(=O)n2CC2CC2)C1 (centres unmarked) the result was ClpP1P2: 7.714%.
For Cc1ccccc1CN1CCC(c2nn(CCN)c3nccnc23)C1 (centres unmarked) the result was Toxoplasma: -8.393%; ClpP1P2: -0.4198%; Leishmania in macrophages: 14.75%; T. brucei: 24.84%.
For CN(C)CCNC(=O)c1ccc2ccc(N(C)CC3CC3)n2c1 the result was Toxoplasma: -7.642%; ClpP1P2: 11.54%; Leishmania in macrophages: 4.091%; T. brucei: -68.3%.
For O=C(O)C(F)(F)F.O=C(O)C(F)(F)F.O=C(O)c1cc2c(nc1N1CCOCC1)CCN(C1CCOC1)CC2 (centres unmarked) the result was Toxoplasma: -4.402%; Leishmania in macrophages: -17.26% and -6.029%; T. brucei: -43.14%.
For COc1ccccc1CN1C[C@@H]2COC[C@]2(COc2cccnc2)C1 the result was ClpP1P2: -10.93%.

Once more, the final 3:

SMILES	Toxoplasma	ClpP1P2	Leishmania in macrophages	T. brucei
CN(C)CCNC(=O)c1ccc2ccc(N(C)CC3CC3)n2c1	-7.642%	11.54%	4.091%	-68.3%
O=C(O)C(F)(F)F.O=C(O)C(F)(F)F.O=C(O)c1cc2c(nc1N1CCOCC1)CCN(C1CCOC1)CC2 (centres unmarked)	-4.402%	-	-17.26% and -6.029%	-43.14%
COc1ccccc1CN1C[C@@H]2COC[C@]2(COc2cccnc2)C1	-	-10.93%	-	-